Results are given in words; binding and its absence hold for the method and conditions named. Binding seen in cells or lysates may run through a third protein. Some entries that bind do so weakly or less than the wild type. Where a sequence is shown, tags or fusion partners need not be part of it.
Molecular target: T1, Periostin (POSTN), full length, 3xFLAG-tagged (pEB-POSTN-3×flag-Puro) (human) (UniProt Q15063)
T1 sequence: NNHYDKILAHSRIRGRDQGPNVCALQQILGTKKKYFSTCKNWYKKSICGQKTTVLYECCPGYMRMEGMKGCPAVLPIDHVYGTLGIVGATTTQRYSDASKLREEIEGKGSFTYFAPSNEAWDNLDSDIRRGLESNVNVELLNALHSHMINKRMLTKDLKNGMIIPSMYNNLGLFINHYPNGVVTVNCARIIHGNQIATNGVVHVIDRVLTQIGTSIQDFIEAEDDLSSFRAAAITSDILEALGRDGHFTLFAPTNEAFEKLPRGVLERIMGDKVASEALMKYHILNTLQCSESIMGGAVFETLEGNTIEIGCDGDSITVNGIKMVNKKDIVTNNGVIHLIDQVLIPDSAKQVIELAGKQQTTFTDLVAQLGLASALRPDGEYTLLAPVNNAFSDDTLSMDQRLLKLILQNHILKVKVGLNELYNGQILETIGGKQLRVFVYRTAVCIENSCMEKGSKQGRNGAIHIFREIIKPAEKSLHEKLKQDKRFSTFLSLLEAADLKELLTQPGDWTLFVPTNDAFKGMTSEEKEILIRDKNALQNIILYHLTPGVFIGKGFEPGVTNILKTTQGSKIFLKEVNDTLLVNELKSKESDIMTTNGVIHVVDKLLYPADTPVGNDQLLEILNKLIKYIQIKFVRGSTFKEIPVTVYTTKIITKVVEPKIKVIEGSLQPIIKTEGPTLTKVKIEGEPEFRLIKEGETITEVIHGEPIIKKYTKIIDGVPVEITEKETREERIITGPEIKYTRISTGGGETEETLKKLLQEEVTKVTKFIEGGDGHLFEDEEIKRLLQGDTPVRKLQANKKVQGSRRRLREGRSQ
Assay: co-IP; 293T cells expressing FLAG-tagged POSTN (full length or truncations) with full-length NOTCH1 or NOTCH1-NECD-HA; FLAG or HA pulled down, immunoblot; no co-IP protocol in the methods

Sequences of proteins named here, by UniProt entry; tags and fusion partners are left off. A change or cut given only in a name is not applied to a line headed by its entry.
UniProt P46531: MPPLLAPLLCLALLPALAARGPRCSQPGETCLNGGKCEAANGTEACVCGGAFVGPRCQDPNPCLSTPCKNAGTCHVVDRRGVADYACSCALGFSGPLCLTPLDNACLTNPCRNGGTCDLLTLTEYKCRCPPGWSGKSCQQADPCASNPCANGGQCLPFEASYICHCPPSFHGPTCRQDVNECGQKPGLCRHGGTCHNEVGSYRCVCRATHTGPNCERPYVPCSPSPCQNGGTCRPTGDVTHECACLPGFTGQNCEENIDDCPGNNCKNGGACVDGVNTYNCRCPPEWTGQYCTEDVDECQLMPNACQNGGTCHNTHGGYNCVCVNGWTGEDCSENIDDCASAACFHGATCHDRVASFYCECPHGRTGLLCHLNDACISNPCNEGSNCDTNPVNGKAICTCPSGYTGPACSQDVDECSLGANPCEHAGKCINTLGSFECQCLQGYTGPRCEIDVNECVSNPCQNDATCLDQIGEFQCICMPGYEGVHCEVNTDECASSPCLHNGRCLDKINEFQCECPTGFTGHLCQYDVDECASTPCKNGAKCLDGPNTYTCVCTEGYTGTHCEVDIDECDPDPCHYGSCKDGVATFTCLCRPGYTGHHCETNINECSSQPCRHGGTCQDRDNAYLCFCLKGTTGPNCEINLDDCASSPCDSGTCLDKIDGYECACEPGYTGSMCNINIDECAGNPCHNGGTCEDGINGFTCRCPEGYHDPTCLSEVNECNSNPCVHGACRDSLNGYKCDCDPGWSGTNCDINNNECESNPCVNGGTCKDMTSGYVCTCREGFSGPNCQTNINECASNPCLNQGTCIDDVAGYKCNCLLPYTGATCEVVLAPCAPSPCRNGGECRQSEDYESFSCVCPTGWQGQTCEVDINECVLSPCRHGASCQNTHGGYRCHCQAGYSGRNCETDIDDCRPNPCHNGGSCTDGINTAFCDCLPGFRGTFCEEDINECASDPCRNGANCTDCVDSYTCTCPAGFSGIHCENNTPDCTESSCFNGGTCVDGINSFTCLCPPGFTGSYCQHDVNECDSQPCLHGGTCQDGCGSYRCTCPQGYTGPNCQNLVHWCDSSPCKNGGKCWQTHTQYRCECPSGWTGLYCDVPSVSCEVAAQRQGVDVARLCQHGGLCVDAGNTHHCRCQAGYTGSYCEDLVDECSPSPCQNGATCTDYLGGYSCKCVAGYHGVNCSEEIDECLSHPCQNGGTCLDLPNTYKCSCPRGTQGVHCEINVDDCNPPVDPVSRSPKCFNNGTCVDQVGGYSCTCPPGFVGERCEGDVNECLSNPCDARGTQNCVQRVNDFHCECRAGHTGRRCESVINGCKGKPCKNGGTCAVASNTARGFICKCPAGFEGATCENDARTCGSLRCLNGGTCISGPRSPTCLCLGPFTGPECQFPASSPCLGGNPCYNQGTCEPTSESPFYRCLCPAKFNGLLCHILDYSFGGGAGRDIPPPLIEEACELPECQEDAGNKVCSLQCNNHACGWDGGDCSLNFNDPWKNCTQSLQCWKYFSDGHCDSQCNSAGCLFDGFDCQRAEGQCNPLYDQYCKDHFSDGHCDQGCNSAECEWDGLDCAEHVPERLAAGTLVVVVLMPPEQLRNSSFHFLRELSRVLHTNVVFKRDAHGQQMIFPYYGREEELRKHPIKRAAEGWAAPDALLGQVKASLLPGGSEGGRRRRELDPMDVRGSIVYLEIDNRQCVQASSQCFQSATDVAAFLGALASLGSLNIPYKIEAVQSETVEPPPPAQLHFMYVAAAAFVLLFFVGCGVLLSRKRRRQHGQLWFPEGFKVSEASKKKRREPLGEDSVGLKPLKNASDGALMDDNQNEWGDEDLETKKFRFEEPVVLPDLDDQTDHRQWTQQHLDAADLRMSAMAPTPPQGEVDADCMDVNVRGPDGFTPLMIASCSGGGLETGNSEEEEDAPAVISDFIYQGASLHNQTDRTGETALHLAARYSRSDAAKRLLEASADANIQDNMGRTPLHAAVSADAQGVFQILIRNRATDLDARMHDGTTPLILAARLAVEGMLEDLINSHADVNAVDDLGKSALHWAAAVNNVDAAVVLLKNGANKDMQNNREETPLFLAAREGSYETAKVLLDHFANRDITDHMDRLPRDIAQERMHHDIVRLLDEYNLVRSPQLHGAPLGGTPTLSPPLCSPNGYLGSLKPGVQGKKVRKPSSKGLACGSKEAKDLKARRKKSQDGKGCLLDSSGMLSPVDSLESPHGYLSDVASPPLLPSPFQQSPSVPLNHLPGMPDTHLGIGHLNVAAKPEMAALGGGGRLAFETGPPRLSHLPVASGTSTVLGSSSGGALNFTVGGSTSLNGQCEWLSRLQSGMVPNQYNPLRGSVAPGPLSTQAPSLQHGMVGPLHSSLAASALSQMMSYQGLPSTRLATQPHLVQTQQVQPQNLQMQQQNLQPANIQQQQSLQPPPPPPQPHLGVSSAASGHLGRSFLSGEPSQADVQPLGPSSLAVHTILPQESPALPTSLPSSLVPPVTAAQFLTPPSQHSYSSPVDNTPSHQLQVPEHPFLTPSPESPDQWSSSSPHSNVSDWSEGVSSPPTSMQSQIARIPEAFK

Row | binding | Substance
1 | binds | NOTCH1, full length (from UniProt P46531 19-2555) (receptor)
2 | binds | NOTCH1-NECD (1-1426aa)-HA (pLV3-CMV-NOTCH1-NECD (1-1426aa)-HA-Puro) (from UniProt P46531 19-1426) (domain or fragment)

— article PMC11706058
